Taken from: PubChem BioAssay AID652272 (Drosophila RNAi Screening Center, 2013)

- Assay: 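Genes whose knock-down decreases or increases Hedgehog reporter output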 (primary screen)
- System: Drosophila clone 8 (Cl8) cells
- Reagents: long dsRNA against Drosophila genes
- Detection: 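Firefly light from a Hedgehog-responsive ptc promoter reporter and Renilla reference light, both read on a plate reader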
- Direction: firefly Hh reporter signal: higher = more ptc reporter light; Renilla reference signal: higher = more Renilla control light
- Active means: 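Called a hit if the two-replicate mean z-score lies below -2 or above +3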
- Calls: active = hit: reporter lowered or raised; inactive = not a hit
The deposit covers about 21,000 reagents; below is a random part of those with a known target gene and a result. Over the whole deposit, 503 (2.4%) are marked active. 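Raw plate light values, not normalised; calls rest on replicate z-scores that were not deposited; hits include reporter decreases as well as increases.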 A number with no mark means an inactive call. Reagent sequences are not shown. Not given: the amount of reagent, the time to read-out.

Depletion of CG9915 (GeneID 32593) [DRSC20217] resulted in: firefly Hh reporter signal, replicate 1 = 72402; firefly Hh reporter signal, replicate 2 = 2.13e5; Renilla reference signal, replicate 1 = 2308; Renilla reference signal, replicate 2 = 6514.
Against lqf (GeneID 38846) [DRSC11363], the entry reads firefly Hh reporter signal, replicate 1 = 1.56e5; firefly Hh reporter signal, replicate 2 = 68087; Renilla reference signal, replicate 1 = 5288; Renilla reference signal, replicate 2 = 2589.
GATAe (GeneID 41945) [DRSC14223] showed firefly Hh reporter signal, replicate 1 = 1.23e5; firefly Hh reporter signal, replicate 2 = 65464; Renilla reference signal, replicate 1 = 5462; Renilla reference signal, replicate 2 = 3217.
For ebd2 (GeneID 40363) [DRSC11682], the entry reads firefly Hh reporter signal, replicate 1 = 89392; firefly Hh reporter signal, replicate 2 = 87452; Renilla reference signal, replicate 1 = 3627; Renilla reference signal, replicate 2 = 2412.
Silencing of CG30457 (GeneID 36940) [DRSC06661] gave: firefly Hh reporter signal, replicate 1 = 1.09e5; firefly Hh reporter signal, replicate 2 = 61254; Renilla reference signal, replicate 1 = 2866; Renilla reference signal, replicate 2 = 4549.
With knock-down of CG14223 (GeneID 32972) [DRSC19580], the record shows firefly Hh reporter signal, replicate 1 = 80801; firefly Hh reporter signal, replicate 2 = 1.90e5; Renilla reference signal, replicate 1 = 2523; Renilla reference signal, replicate 2 = 7435.
Knock-down of CG11529 (GeneID 39395) [DRSC09839] came out at: firefly Hh reporter signal, replicate 1 = 83241; firefly Hh reporter signal, replicate 2 = 31211; firefly Hh reporter signal, replicate 3 = 38741; Renilla reference signal, replicate 1 = 3521; Renilla reference signal, replicate 2 = 3299.
With knock-down of CG33490 (GeneID 2768970) [DRSC10587], the screen gave firefly Hh reporter signal, replicate 1 = 74327; firefly Hh reporter signal, replicate 2 = 50531; Renilla reference signal, replicate 1 = 3328; Renilla reference signal, replicate 2 = 2064.
Grip71 (GeneID 35130) [DRSC02042] scored firefly Hh reporter signal, replicate 1 = 67334; firefly Hh reporter signal, replicate 2 = 43677; Renilla reference signal, replicate 1 = 1003; Renilla reference signal, replicate 2 = 4394.
For Pgant2 (GeneID 33556) [DRSC00587] the deposit lists firefly Hh reporter signal, replicate 1 = 1.45e5; firefly Hh reporter signal, replicate 2 = 88691; Renilla reference signal, replicate 1 = 2837; Renilla reference signal, replicate 2 = 8428.
For CG11379 (GeneID 31062) [DRSC18629], the values are firefly Hh reporter signal, replicate 1 = 77445; firefly Hh reporter signal, replicate 2 = 1.58e5; Renilla reference signal, replicate 1 = 2340; Renilla reference signal, replicate 2 = 5993.
With knock-down of yuri (GeneID 34894) [DRSC01453], the screen gave firefly Hh reporter signal, replicate 1 = 1.16e5; firefly Hh reporter signal, replicate 2 = 2.29e5; Renilla reference signal, replicate 1 = 3242; Renilla reference signal, replicate 2 = 11516.
With knock-down of yuri (GeneID 34894) [DRSC01454], the screen gave firefly Hh reporter signal, replicate 1 = 1.50e5; firefly Hh reporter signal, replicate 2 = 2.02e5; Renilla reference signal, replicate 1 = 3731; Renilla reference signal, replicate 2 = 9530.
Silencing of yuri (GeneID 34894) [DRSC01943] resulted in: firefly Hh reporter signal, replicate 1 = 1.01e5; firefly Hh reporter signal, replicate 2 = 74790; Renilla reference signal, replicate 1 = 2576; Renilla reference signal, replicate 2 = 6154.
yuri (GeneID 34894) [DRSC01972] showed firefly Hh reporter signal, replicate 1 = 1.04e5; firefly Hh reporter signal, replicate 2 = 77800; Renilla reference signal, replicate 1 = 4307; Renilla reference signal, replicate 2 = 3290.
For Obp19d (GeneID 33040) [DRSC20569], the values are firefly Hh reporter signal, replicate 1 = 82136; firefly Hh reporter signal, replicate 2 = 2.49e5; Renilla reference signal, replicate 1 = 1446; Renilla reference signal, replicate 2 = 9527.
After knock-down of orion (GeneID 31712) [DRSC18213], the record shows firefly Hh reporter signal, replicate 1 = 65643; firefly Hh reporter signal, replicate 2 = 2.05e5; Renilla reference signal, replicate 1 = 1456; Renilla reference signal, replicate 2 = 7841.
orion (GeneID 31712) [DRSC18214] showed firefly Hh reporter signal, replicate 1 = 77509; firefly Hh reporter signal, replicate 2 = 2.62e5; Renilla reference signal, replicate 1 = 2184; Renilla reference signal, replicate 2 = 10161.
Arms (GeneID 37433) [DRSC03856] gave firefly Hh reporter signal, replicate 1 = 6.33e5; firefly Hh reporter signal, replicate 2 = 1.55e5; firefly Hh reporter signal, replicate 3 = 1.01e5; Renilla reference signal, replicate 1 = 4507; Renilla reference signal, replicate 2 = 5088.
Arms (GeneID 37433) [DRSC03857] scored firefly Hh reporter signal, replicate 1 = 1.15e5; firefly Hh reporter signal, replicate 2 = 1.84e5; Renilla reference signal, replicate 1 = 3464; Renilla reference signal, replicate 2 = 8521.
Arms (GeneID 37433) [DRSC04052] scored firefly Hh reporter signal, replicate 1 = 1.30e5; firefly Hh reporter signal, replicate 2 = 69396; Renilla reference signal, replicate 1 = 4520; Renilla reference signal, replicate 2 = 2944.
After knock-down of Arms (GeneID 37433) [DRSC04256] the results were firefly Hh reporter signal, replicate 1 = 1.03e5; firefly Hh reporter signal, replicate 2 = 53809; Renilla reference signal, replicate 1 = 2673; Renilla reference signal, replicate 2 = 4166.

Entries listed so far whose gene name starts with Y or y:
yuri (GeneID 34894) [DRSC01453] | firefly Hh reporter signal, replicate 1 = 1.16e5; firefly Hh reporter signal, replicate 2 = 2.29e5; Renilla reference signal, replicate 1 = 3242; Renilla reference signal, replicate 2 = 11516
yuri (GeneID 34894) [DRSC01454] | firefly Hh reporter signal, replicate 1 = 1.50e5; firefly Hh reporter signal, replicate 2 = 2.02e5; Renilla reference signal, replicate 1 = 3731; Renilla reference signal, replicate 2 = 9530
yuri (GeneID 34894) [DRSC01943] | firefly Hh reporter signal, replicate 1 = 1.01e5; firefly Hh reporter signal, replicate 2 = 74790; Renilla reference signal, replicate 1 = 2576; Renilla reference signal, replicate 2 = 6154
yuri (GeneID 34894) [DRSC01972] | firefly Hh reporter signal, replicate 1 = 1.04e5; firefly Hh reporter signal, replicate 2 = 77800; Renilla reference signal, replicate 1 = 4307; Renilla reference signal, replicate 2 = 3290
